Construct, isoform or probe ends are uncertain for at least one entry. For some of these results: Where cells or extracts were used, other partners may take part. For some of these results: No signal at the amounts used counts as a negative.

For data set [1], the system named is Iron responsive protein (IRP), cytosolic liver extract. Kind of data set: EMSA. The settings on record: protein in an extract, label: biotin. In general terms: A gel shift assay detects complexes by their altered migration in electrophoresis.
Data set [2] concerns Iron responsive protein (IRP), HA-tagged. Kind of data set: pull-down. The settings on record: 3'-biotin-PEG4-alkane cytidine bisphosphate ligated; 10 mM HEPES pH 7.3, 20 mM KCl, 1 mM MgCl2, 1 mM DTT, 10% glycerol, RT, UV cross-linked; streptavidin agarose; protein translated in vitro; label: biotin.

Take “UCCUGCUUCAACAGUGCUUGGACGGAA [IRE RNA with alkene-linked biotin cytidine]”: the binding result in data set [1] (3'-biotin-linker-alkene cytidine bisphosphate ligated, ligated but no functional bandshift, variant of IRE RNA) is given as “no binding”.

For “UCCUGCUUCAACAGUGCUUGGACGGAA [IRE RNA with alkyne-linked biotin cytidine]”, the binding result in data set [1] (3'-biotin-linker-alkyne cytidine bisphosphate ligated, no functional shift, alkyne linkage reactive with liver extract, variant of IRE RNA) is “no binding”.

As for UCCUGCUUCAACAGUGCUUGGACGGAA [IRE RNA], the binding result in data set [2] is recorded as “binds”; in data set [1] (3'-biotin-PEG4-alkane cytidine bisphosphate ligated, 10 mM HEPES pH 7.3, 20 mM KCl, 1 mM MgCl2, 1 mM DTT, tRNA, 5% glycerol, RT, unlabeled competitor tested) it was “binds”.

The record behind these values is patent US20110262917.
